PMC10585736
No constants are given. Whether binding was seen depends on the method and setting. For part of these data: In cells and extracts the contact can be indirect. Some binding calls cover weakened binding; strength is not graded here. For part of these data: Where a sequence is shown, tags or fusion partners need not be part of it.

The chains behind the UniProt entries cited, without tags or fusion partners. Where a name states a change or a piece, a line headed by the entry shows the natural chain unless it says otherwise.
UniProt Q12495: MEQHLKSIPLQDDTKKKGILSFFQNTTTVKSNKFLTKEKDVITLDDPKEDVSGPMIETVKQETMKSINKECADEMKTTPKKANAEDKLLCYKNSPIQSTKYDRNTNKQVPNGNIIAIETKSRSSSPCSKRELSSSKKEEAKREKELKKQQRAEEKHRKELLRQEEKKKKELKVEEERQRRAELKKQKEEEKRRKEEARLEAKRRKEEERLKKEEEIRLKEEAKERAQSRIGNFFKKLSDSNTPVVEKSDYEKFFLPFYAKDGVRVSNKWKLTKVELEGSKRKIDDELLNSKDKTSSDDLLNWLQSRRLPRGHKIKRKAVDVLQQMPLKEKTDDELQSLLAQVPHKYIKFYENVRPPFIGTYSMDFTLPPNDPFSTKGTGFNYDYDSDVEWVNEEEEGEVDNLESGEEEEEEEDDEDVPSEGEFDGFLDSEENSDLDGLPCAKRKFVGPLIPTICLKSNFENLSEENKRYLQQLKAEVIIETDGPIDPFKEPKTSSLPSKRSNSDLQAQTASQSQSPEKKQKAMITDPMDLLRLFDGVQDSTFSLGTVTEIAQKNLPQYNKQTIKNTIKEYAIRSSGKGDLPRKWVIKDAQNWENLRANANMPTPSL
UniProt P15873: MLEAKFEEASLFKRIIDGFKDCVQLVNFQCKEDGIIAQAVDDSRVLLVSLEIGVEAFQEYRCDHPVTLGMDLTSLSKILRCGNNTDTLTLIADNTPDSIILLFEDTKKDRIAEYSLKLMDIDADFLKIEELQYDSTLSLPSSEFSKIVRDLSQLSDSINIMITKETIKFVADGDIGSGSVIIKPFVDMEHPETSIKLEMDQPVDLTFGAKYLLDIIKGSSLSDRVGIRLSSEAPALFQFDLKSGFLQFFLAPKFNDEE

Columns and labels:
[1] = target: T1, Rrm3p, two-hybrid bait (S. cerevisiae) (UniProt P38766); assay: two-hybrid; Cac1p and Rrm3p as baits, wild type and mutant Pol30p (Gal4AD) as prey; 4 h in 2% galactose/1% raffinose at 30 °C; β-galactosidase (ONPG) in cell extracts as U/mg of protein, plotted as a factor of the wild-type interaction
T1 sequence: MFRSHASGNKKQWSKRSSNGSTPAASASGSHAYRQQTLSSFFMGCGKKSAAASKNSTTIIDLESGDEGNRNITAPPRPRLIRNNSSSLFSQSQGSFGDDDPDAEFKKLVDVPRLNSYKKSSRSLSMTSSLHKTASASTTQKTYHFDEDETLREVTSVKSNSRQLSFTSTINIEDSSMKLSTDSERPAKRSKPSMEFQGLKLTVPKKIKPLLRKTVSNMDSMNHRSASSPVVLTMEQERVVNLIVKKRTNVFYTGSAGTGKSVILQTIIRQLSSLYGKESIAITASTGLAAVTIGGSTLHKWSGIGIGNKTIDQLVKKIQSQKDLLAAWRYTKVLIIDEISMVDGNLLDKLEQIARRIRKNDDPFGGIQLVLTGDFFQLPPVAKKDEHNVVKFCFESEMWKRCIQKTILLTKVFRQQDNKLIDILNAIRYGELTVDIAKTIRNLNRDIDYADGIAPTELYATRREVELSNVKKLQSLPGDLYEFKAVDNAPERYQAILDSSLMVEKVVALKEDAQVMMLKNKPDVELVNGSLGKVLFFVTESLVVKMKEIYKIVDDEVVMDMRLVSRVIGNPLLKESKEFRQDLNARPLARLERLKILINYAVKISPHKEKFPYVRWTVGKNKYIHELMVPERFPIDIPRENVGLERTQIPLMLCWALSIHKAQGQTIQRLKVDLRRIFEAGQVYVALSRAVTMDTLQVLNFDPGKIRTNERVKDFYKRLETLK

[2] = target: Cac1p-FLAG (S. cerevisiae) (UniProt Q12495); assay: co-IP; Cac1p-FLAG and Rrm3p-Myc from low copy plasmids in the POL30-0 and mutant pol30 strains; α-FLAG or α-Myc precipitation from lysate in IP buffer (150 mM NaCl, 50 mM Tris pH 7.5, 2 mM EDTA), washes with 0.2% Triton X100 + 0.01% SDS, elution with FLAG or Myc peptide, blot with α-PCNA
[3] = target: T2, Rrm3p-Myc (S. cerevisiae) (UniProt P38766); assay: as above
T2 sequence: T1 sequence

[4] = target: Cac1p, two-hybrid bait (S. cerevisiae) (UniProt Q12495); assay: two-hybrid; Cac1p and Rrm3p as baits, wild type and mutant Pol30p (Gal4AD) as prey; 4 h in 2% galactose/1% raffinose at 30 °C; β-galactosidase (ONPG) in cell extracts as U/mg of protein, plotted as a factor of the wild-type interaction

Substance | binding [1] | binding [2] | binding [3] | binding [4]
pol30-6 mutant Pol30p, two-hybrid prey (from UniProt P15873 1-258) | binds |  |  | 
pol30-79 mutant Pol30p of the pol30-79 strain (from UniProt P15873 1-258) |  | binds weakly | binds | 
pol30-8 mutant Pol30p, two-hybrid prey (from UniProt P15873 1-258) | binds weakly |  |  | 
pol30-79 mutant Pol30p, two-hybrid prey (from UniProt P15873 1-258) | binds |  |  | 
Pol30p (PCNA), wild type, two-hybrid prey (pBL240-PCNA-Gal4AD) (from UniProt P15873 1-258) | binds |  |  | binds
Pol30p (PCNA), wild type, of the POL30-0 strain (from UniProt P15873 1-258) |  | binds | binds | 
